In PMC11825094, “Tonic ubiquitination of the central body weight regulator melanocortin receptor 4 (MC4R) promotes its constitutive exit from cilia” (PLOS Biology, 2025):
Results are given in words; binding and its absence hold for the method and conditions named. Binding seen in cells or lysates may run through a third protein. Some entries that bind do so weakly or less than the wild type. Sequences can lack the tags named with a protein.

Amino acid sequences for entries named in this document (tags omitted).
UniProt P32245: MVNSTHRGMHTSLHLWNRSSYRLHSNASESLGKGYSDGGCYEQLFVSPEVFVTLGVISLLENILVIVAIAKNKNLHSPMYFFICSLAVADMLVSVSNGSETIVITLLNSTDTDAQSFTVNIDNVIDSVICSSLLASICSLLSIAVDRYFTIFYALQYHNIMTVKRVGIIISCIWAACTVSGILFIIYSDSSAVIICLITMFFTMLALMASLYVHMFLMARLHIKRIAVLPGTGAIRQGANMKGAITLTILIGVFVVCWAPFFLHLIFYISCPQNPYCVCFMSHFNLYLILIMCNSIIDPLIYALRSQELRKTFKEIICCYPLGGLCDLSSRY

Target: T1, melanocortin receptor accessory protein 2 (MRAP2)-3xFLAG, murine (mouse) (UniProt D3Z1Q2)
T1 sequence: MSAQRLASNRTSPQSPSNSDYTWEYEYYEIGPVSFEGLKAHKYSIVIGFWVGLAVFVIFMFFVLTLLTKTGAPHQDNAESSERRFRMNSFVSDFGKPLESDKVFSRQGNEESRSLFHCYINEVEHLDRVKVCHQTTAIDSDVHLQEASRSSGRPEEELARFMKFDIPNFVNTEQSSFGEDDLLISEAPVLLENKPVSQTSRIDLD
Assay: co-IP; anti-FLAG M2 affinity gel captures mMRAP2^3FLAG from clarified lysate of serum-starved IMCD3-[mMRAP2^3FLAG-T2A-hMC4R^3NG] cells (50 mM HEPES pH 7.5, 250 mM NaCl, 2 mM EDTA, 10% glycerol, 0.25% n-dodecyl β-D-maltoside), 2 h at 4°C; eluted with 3xFLAG peptide; blot with anti-NeonGreen and anti-FLAG; FlpIn parental cells as control

For “melanocortin receptor 4 (MC4R)-3xmNeonGreen, human (from UniProt P32245 1-332)”, the binding was “binds”.
